The source of these data is patent US20020137019A1.

By UniProt entry, the sequences of proteins in these tests, tags left out. Where a name states a change or a piece, a line headed by the entry shows the natural chain unless it says otherwise. Residues count along the entry.
UniProt P03372: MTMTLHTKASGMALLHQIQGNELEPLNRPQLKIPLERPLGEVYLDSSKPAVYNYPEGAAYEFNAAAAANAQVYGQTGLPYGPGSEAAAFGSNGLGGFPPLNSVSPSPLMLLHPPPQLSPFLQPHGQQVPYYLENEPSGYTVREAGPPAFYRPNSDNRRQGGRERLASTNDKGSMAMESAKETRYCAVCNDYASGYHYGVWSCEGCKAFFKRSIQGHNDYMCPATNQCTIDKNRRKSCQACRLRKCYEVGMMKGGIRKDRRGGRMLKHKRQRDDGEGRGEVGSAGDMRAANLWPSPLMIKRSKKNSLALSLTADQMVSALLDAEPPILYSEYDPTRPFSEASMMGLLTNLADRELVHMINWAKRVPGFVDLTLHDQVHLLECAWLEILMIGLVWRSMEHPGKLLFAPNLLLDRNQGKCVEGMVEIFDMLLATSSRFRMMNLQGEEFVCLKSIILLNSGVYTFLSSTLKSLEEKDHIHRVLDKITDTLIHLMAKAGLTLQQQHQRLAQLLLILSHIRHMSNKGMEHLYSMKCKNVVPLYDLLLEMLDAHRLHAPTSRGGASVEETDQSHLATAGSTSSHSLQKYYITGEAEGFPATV
UniProt P06536, residues 107-237: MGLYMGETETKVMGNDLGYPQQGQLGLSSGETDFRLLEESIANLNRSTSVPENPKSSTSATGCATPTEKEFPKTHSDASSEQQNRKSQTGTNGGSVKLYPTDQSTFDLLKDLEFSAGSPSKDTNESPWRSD
UniProt P0A7C2: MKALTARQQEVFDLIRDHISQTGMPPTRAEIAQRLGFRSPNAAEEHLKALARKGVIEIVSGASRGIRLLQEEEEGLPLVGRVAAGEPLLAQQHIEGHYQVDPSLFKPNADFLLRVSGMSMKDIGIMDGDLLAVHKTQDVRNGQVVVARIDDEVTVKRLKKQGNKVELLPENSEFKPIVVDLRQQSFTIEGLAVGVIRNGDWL

The target in test [1] is estrogen receptor alpha (human) (UniProt P03372). The experiment in a line: yeast two hybrid system.
Test [2] deals with glucocorticoid receptor AF1 (GR107-237) in pJG4-5 (UniProt P06536). The experiment in a line: modified yeast two-hybrid, qualitative plate beta-galactosidase assay.

These are yes or no findings as the source states them, for the method shown. Some entries that bind do so weakly or less than the wild type.

On to “ART-27 (full length, 1-157; LexA DNA binding domain fusion) (from UniProt P0A7C2 1-202; Q9UBK9 1-157)”, for which the binding result in test [1] and in test [2] was “binds” in each case.
